This passage reports binding results from article PMC6713331.

Amino acid sequences for entries named in this document (tags omitted).
UniProt P03220: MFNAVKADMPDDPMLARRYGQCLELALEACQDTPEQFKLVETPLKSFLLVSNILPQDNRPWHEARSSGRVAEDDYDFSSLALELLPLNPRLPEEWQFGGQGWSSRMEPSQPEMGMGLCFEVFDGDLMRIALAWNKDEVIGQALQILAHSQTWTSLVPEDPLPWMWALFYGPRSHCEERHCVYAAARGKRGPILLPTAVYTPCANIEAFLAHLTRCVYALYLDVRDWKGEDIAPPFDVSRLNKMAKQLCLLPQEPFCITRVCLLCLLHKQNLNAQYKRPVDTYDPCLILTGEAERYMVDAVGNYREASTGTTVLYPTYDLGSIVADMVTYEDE

Results are given in words; binding and its absence hold for the method and conditions named. In cells and extracts the contact can be indirect. Some entries that bind do so weakly or less than the wild type.

Test [1] has as its target FLAG-tagged BGLF3 (wild type) (Epstein-Barr virus) (UniProt P03220). Nature of the test: co-IP; FLAG-tagged BGLF3 or BGLF3(T42A) as bait with BFRF2 and BVLF1 co-expressed together in 2089 cells; anti-FLAG M2 agarose, 2 h, 4 C; eluted with 3X FLAG peptide; anti-Myc blot.
Test [2] has the same target. Nature of the test: co-IP; FLAG-tagged BGLF3 or BGLF3(T42A) as bait with one partner (BcRF1, BFRF2 or BVLF1) co-expressed in 2089 cells; anti-FLAG M2 agarose, 2 h, 4 C; lysis buffer 20 mM Tris-HCl pH 7.5, 150 mM NaCl, 1 mM EDTA, 1 mM EGTA, 1% Triton; eluted with 3X FLAG peptide; anti-Myc blot; ZEBRA co-transfected in the BcRF1 experiment.

B1: BFRF2 (protein, UniProt P14347 1-591)
chain: MALFLARHTLSGTGAGCHGRGPAPDVSEVDLTLQALGERGFSRLLDLGLACLDLSYVEMREFVVWGRPPASEAAVASTPGSLFRSHSSAYWLSEVERPGGLVRWARSQTSPSSLTLAPHLGPSLLSLSVVTGGGCGAVAFCNAFFLAYFLVVRSVFPAFSDRIAAWICDRSPFCENTRAVARGYRGLVKRFLAFVFERSSYDPPLLRQNSRPVERCFAIKNYVPGLDSQSCVTVPSFSRWAQSHASELDPREIRDRVTPATAPSFVADHASALLASLQKKASDTPCGNPIQWMWYRLLVNSCLRSAHCLLPIPAVSEGGRKTGGGVGEELVGAGGPCLSRDVFVAIVSRNVLSCLLNVPAAGPRAYKCFRSHASRPVSGPDYPPLAVFCMDCGYCLNFGKQTGVGGRLNSFRPTLQFYPRDQKEKHVLTCHASGRVYCSNCGSAAVGCQRLAEPPSARSGWRPRIRAVLPHNAAYELDRGSRLLDAIIPCLGPDRTCMRPVVLRGVTVRQLLYLTLRTEARAVCSICQQRQAPEDARDEPHLFSSCLEVELPPGERCAGCRLYQTRYGTPAAQAHPPGEAGGGFSRQSPAS
For B1, the binding entry in test [1] and in test [2] was “binds” each time.
